For assay [1], the target named is MEC-12(G416E)-containing microtubules (C. elegans) (UniProt P91910+P12456). Description: co-sedimentation; microtubules polymerised in the high-speed supernatant of worm extract (PMEG buffer, 2 mM GTP, taxol, hexokinase, glucose, AMP-PNP, on ice 90 min), sedimented through a 20% sucrose cushion, washed with 50 mM NaCl, pelleted; pellet blotted with anti-DHC-1, anti-UNC-104 and 6-11B-1; band intensity normalised to tubulin.

Sequences of proteins named here, by UniProt entry; tags and fusion partners are left off. A change or cut given only in a name is not applied to a line headed by its entry.
UniProt P12456: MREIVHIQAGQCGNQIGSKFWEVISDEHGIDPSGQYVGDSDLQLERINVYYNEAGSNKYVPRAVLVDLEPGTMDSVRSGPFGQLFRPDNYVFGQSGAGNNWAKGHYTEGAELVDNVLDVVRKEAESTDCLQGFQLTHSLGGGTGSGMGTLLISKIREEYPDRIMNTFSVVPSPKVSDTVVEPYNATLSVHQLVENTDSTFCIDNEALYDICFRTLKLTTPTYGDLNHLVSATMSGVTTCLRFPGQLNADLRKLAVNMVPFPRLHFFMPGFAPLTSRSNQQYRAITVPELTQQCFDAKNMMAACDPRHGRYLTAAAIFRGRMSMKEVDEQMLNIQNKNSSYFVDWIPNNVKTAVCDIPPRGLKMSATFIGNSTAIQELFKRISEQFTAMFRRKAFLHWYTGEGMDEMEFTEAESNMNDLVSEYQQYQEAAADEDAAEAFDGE
UniProt Q19020: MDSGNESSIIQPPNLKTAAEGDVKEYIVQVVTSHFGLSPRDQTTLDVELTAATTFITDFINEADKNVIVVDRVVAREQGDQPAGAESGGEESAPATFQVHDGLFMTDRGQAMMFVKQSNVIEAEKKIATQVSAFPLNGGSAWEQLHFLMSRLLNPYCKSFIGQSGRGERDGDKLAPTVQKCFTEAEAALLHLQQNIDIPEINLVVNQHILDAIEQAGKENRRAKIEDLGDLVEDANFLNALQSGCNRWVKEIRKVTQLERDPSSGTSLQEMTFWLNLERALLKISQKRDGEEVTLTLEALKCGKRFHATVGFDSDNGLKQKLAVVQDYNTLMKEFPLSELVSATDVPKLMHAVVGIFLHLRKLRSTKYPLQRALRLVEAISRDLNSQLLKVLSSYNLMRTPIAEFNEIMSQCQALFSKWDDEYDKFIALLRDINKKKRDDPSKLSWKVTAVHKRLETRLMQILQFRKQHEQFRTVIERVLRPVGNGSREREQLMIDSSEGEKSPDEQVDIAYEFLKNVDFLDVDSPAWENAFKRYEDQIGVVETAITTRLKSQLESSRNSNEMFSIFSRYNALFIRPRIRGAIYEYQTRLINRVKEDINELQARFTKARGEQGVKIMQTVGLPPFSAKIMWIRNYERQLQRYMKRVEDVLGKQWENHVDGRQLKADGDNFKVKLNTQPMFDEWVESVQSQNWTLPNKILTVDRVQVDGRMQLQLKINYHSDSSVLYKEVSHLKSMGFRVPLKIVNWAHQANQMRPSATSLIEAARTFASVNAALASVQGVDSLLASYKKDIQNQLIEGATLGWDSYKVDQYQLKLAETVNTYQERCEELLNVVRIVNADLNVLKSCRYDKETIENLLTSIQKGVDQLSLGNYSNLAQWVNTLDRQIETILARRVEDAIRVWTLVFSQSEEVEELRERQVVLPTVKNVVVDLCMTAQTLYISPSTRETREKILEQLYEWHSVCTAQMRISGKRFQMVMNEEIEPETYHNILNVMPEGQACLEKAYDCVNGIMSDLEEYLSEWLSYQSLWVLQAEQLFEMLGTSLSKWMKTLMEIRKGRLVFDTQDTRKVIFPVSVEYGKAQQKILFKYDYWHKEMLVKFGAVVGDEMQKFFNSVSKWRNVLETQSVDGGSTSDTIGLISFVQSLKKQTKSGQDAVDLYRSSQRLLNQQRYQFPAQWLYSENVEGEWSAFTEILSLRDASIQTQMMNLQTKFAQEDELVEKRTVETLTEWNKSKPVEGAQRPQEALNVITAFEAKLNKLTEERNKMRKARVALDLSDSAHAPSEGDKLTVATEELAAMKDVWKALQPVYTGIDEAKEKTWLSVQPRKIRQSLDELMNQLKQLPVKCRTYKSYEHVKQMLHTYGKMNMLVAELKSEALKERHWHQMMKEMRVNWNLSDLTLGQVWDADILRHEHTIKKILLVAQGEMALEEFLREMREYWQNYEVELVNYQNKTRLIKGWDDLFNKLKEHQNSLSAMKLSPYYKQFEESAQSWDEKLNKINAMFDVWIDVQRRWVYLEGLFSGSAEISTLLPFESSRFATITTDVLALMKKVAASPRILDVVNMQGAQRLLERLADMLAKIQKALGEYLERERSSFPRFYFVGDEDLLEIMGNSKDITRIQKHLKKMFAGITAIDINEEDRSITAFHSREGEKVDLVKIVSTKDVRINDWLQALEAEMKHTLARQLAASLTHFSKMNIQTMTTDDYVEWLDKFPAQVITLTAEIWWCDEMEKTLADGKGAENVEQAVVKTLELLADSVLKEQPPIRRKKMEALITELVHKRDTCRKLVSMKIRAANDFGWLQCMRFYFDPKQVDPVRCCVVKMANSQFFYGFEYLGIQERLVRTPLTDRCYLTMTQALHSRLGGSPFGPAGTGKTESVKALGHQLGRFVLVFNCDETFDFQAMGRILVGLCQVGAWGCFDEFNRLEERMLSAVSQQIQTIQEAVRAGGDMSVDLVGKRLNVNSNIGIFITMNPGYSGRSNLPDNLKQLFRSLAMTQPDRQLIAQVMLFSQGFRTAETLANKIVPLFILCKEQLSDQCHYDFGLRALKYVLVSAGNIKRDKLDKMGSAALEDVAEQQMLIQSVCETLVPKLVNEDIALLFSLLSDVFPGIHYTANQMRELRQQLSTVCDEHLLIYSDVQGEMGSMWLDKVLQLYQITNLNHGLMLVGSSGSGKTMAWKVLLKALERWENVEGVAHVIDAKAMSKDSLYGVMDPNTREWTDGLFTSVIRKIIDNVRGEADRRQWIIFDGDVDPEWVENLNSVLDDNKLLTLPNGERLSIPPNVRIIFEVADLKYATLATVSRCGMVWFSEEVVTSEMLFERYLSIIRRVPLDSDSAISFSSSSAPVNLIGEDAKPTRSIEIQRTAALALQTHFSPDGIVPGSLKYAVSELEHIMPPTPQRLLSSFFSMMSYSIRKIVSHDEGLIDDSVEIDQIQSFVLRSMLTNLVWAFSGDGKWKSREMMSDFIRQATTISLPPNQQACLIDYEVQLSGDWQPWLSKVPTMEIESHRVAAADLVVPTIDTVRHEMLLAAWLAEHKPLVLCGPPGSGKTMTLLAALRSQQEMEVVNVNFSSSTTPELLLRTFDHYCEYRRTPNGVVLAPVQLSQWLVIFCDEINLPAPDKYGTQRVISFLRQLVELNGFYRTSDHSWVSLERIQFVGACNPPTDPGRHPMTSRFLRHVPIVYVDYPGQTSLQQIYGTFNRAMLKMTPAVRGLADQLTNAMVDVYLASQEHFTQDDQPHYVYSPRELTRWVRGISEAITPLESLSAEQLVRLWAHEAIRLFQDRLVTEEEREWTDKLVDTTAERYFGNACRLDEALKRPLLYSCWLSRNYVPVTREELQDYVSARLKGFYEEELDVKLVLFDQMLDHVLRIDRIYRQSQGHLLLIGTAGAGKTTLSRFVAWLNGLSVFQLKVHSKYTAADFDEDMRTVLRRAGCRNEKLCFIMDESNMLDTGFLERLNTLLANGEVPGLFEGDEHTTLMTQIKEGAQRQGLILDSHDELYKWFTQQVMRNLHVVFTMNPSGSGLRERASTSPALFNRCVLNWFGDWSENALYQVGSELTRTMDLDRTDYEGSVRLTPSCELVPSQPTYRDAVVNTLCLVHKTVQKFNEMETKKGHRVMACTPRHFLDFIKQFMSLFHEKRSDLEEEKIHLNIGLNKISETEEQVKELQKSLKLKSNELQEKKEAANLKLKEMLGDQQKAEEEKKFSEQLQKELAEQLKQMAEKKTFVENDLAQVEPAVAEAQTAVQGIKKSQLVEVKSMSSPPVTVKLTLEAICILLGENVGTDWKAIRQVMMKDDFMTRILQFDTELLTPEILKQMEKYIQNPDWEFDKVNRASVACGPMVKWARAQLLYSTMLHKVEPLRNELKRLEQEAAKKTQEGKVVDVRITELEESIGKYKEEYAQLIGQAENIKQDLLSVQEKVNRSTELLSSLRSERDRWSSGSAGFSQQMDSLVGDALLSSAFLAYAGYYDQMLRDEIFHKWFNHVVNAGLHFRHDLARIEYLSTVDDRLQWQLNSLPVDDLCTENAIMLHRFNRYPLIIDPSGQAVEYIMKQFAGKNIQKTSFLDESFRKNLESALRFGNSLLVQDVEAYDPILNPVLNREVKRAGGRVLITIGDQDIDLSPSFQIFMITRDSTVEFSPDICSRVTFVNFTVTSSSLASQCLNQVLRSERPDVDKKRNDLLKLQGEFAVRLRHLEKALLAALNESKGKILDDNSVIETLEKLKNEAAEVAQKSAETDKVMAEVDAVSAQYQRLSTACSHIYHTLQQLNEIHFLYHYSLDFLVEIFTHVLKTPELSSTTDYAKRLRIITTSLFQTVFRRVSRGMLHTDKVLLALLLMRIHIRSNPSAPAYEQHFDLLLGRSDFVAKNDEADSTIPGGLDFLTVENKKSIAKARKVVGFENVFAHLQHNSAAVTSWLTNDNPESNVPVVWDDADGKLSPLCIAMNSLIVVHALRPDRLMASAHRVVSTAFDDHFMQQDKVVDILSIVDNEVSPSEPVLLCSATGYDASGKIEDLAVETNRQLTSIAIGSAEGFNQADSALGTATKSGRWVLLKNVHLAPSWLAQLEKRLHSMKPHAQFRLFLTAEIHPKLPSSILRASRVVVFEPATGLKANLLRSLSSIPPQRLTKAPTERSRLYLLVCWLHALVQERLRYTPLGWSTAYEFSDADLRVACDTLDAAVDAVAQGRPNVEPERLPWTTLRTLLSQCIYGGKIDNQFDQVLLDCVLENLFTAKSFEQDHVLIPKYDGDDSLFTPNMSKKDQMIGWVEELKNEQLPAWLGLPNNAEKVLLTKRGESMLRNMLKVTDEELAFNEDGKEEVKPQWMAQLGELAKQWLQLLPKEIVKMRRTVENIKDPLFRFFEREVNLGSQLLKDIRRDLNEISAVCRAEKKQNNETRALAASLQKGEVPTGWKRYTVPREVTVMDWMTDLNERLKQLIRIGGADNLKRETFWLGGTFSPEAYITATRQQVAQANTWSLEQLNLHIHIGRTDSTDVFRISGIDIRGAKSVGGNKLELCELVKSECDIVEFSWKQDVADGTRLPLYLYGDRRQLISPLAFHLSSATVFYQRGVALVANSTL
UniProt P23678: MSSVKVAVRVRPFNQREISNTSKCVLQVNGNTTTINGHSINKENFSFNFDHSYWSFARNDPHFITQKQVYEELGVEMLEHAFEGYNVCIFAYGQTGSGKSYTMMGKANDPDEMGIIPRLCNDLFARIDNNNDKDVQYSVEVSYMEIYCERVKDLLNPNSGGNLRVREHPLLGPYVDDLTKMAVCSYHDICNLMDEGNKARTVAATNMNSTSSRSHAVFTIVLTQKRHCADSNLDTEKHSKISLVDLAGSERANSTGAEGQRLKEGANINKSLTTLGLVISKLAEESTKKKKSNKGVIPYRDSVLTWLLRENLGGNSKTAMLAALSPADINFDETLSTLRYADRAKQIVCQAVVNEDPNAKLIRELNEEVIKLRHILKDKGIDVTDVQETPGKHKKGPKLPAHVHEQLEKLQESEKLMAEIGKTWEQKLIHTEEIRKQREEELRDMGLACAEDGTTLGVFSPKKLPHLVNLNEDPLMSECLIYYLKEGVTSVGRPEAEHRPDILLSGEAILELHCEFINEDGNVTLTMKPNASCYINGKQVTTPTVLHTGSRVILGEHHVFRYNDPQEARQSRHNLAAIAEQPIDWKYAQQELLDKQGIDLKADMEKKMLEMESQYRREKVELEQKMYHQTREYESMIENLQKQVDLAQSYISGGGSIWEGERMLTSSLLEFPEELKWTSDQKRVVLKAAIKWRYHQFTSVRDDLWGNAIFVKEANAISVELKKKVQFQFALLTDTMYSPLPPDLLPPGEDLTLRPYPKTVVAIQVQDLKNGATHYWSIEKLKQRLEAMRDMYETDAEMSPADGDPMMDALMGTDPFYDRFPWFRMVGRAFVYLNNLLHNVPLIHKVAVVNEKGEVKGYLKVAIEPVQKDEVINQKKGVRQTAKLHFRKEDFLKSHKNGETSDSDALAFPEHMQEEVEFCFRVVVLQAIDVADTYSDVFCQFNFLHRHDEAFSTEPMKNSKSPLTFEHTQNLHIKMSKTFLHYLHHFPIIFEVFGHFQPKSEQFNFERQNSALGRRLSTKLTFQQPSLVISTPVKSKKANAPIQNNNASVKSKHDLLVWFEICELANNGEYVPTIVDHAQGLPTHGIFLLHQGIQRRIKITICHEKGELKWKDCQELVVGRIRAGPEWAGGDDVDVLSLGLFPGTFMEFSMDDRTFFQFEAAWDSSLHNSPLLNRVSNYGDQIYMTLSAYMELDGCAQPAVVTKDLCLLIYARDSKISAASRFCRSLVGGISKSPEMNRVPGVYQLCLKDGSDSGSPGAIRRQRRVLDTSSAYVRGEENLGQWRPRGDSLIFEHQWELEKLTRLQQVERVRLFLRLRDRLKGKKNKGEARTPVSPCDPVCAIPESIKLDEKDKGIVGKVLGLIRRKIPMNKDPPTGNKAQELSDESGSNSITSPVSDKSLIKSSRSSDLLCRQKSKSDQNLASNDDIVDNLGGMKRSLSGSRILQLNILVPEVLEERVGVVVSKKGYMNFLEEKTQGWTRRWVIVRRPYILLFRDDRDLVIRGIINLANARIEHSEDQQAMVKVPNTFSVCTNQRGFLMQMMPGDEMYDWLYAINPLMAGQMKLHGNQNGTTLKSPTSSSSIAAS

For assay [2], the target named is wild-type microtubules sedimented from animals overexpressing wild-type MEC-12 (with MEC-7) (C. elegans) (UniProt P91910+P12456). The assay is described as above.

Results are given in words; binding and its absence hold for the method and conditions named. Binding seen in cells or lysates may run through a third protein. Some entries that bind do so weakly or less than the wild type.

With “DHC-1, heavy chain of cytoplasmic dynein (from UniProt Q19020 1-4568)”, the binding entry in assay [1] and in assay [2] was “binds” throughout.
Consider “UNC-104/KIF1A (from UniProt P23678 1-1584)”, for which the binding entry in assay [1] and in assay [2] was “binds” throughout.

Source of the values: paper PMC4230729.
